Assay results as given in PMC3197605, “Expression, Purification and Characterization of Arginase from Helicobacter pylori in Its Apo Form” (PLoS ONE, 2011).
These are yes or no findings as the source states them, for the method shown.

Biological target: Helicobacter pylori arginase RocF, apo form (Helicobacter pylori strain 26695) (UniProt O25949)
Assay: SEC; Superdex 200 10/300GL, 20 mM Tris-HCl pH 7.5, 150 mM NaCl; oligomeric state from the position of the peak; both purified

B1: Helicobacter pylori arginase RocF, apo form (enzyme, UniProt O25949 1-322)
chain: MILVGLEAELGASKRGTDKGVRRLREALSATHGDVIKGMQTITQERCVLYKEFRYAKNFEDYYLFCKENLIPCMKEVFEKKEFPLILSSEHANMFGIFQAFRSVHKDKKIGILYLDAHADIHTAYDSDSKHIHGMPLGMVLNRVRSGFNRMSESEEKAWQKLCSLGLEKGGLEIDPKCLVYFGVRSTEQSERDVIRELQIPLFSVDAIRENMQEVVQKTKESLKAVDIIYLSLDLDIMDGKLFTSTGVRENNGLSFDELKQLLGLLLESFKDRLKAVEVTEYNPTVSIKHNNEEEKQVLEILDLIINSCKIKDKKHSFARSY
**Q.** With B1 as the binder, how does the binding read?
**A.** no binding
